# Screening data, single-dose tests

The chains behind the UniProt entries cited, without tags or fusion partners. Residues count along the entry.
UniProt I6X8D2, whole entry: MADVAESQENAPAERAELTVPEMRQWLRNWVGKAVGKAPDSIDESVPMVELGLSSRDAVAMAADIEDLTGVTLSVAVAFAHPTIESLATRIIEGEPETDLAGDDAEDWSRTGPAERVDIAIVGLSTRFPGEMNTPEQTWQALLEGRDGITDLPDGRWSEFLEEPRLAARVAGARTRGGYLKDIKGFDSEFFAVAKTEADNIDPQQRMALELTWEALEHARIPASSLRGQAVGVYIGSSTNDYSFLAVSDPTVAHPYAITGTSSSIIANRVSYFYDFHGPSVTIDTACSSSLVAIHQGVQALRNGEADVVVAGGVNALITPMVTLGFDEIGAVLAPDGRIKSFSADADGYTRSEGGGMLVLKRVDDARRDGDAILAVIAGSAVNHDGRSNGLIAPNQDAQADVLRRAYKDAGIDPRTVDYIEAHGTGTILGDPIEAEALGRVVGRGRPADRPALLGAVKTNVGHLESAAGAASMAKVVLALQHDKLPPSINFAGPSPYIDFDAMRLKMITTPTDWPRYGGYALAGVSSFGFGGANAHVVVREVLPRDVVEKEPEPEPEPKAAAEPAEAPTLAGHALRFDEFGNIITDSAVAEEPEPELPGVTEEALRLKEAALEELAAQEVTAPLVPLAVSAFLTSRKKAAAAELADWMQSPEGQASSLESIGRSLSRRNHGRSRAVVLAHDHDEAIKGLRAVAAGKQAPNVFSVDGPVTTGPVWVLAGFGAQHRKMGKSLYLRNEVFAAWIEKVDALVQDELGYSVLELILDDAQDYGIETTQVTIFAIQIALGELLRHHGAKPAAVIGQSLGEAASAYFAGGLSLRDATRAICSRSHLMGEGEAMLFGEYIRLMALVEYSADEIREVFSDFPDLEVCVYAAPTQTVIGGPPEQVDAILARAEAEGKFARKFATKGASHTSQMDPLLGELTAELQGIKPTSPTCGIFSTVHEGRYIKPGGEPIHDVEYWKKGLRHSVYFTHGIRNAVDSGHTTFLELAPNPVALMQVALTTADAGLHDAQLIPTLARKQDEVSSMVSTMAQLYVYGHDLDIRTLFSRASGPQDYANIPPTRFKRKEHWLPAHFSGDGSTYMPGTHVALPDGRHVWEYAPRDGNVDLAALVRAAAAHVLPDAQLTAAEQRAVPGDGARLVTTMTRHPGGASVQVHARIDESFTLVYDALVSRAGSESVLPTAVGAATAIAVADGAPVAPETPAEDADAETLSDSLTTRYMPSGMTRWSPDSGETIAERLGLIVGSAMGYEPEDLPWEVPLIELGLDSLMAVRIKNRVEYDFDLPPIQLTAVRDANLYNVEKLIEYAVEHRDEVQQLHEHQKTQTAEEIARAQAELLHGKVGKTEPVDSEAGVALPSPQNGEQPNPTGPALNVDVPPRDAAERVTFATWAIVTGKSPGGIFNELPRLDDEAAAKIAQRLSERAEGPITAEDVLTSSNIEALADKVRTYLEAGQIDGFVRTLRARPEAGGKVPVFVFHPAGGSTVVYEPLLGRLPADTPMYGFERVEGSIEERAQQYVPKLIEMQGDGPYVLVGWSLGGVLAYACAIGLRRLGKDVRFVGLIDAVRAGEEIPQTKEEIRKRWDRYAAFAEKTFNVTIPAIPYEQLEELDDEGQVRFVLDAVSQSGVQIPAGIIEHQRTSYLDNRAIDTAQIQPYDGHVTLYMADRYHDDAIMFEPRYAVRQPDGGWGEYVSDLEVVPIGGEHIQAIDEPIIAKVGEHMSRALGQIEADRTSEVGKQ
UniProt P9WNZ1, whole entry: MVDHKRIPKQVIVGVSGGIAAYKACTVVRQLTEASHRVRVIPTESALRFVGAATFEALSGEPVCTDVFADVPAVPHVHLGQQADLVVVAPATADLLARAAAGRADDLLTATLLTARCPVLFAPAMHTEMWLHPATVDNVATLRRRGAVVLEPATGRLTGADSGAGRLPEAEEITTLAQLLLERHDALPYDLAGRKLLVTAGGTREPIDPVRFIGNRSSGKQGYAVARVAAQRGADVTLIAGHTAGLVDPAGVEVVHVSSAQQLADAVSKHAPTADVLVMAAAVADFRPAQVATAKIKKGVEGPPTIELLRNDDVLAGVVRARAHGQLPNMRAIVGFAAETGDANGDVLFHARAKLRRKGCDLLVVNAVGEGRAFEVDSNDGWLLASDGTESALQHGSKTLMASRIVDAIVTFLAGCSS
UniProt Q8IDJ8, 1-583: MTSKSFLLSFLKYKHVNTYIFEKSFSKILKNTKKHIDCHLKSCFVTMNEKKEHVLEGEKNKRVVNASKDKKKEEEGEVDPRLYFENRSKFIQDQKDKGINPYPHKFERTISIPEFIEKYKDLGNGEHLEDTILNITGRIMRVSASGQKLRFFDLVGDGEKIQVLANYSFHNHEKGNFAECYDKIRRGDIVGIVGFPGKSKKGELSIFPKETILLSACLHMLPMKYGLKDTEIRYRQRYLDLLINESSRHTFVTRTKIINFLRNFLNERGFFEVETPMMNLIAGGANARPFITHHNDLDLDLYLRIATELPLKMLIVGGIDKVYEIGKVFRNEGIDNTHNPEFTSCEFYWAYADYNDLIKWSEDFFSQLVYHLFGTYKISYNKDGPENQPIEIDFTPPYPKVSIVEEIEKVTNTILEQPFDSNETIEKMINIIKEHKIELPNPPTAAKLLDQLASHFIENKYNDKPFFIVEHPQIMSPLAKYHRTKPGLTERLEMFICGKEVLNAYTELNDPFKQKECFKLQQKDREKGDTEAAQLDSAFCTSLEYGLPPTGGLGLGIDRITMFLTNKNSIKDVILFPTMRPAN
UniProt Q4DA54, 1-478: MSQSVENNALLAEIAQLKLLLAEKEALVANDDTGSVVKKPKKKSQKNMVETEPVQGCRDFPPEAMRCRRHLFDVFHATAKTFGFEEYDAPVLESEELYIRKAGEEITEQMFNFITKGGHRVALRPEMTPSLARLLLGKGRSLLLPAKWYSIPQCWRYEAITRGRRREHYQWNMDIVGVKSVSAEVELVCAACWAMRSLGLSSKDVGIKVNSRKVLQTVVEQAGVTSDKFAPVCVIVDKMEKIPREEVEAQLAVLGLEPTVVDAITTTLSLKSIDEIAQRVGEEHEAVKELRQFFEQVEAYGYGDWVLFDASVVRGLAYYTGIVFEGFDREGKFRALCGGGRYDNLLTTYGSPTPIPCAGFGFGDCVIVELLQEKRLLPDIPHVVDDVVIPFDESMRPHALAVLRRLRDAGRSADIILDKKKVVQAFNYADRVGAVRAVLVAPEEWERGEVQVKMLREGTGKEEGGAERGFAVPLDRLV

The values are deposited in ChEMBL (CHEMBL3988442, “University of Dundee, Small-Polar-MMV Screening Library” (2021)).

A: 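Polyketide synthase Pks13, Mycobacterium tuberculosis (UniProt I6X8D2). Enzyme assay of the thioesterase domain of polyketide synthase 13; the read-out is not stated. Tested at 30 µM. The record gives no direction; the compounds picked for IC50 retests had high values, so higher reads as stronger inhibition. Of about 67,000 compounds tested this way, about 300 (0.46%) reached 50% or more in at least one test.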
B: 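Enzyme assay of CoaBC with a phosphate dye (Biomol Green) read at 650 nm. Target: Coenzyme A biosynthesis protein CoaBC, Mycobacterium tuberculosis (UniProt P9WNZ1). Compounds at 30 µM. Higher reads as stronger inhibition, judged from the few compounds that gave an IC50. Most strong results did not repeat in a second test. About 67,000 compounds were tested under these conditions; 0.06% (about 40) showed 50% or more at least once.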
C: 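Lysine-tRNA ligase, Plasmodium falciparum 3D7 (UniProt Q8IDJ8). Enzyme assay of the cytosolic lysyl-tRNA synthetase in 384-well plates, read by luminescence. Concentration: 30 µM. Higher reads as stronger inhibition, judged from the few compounds that gave an IC50. About 69,000 compounds were tested under these conditions; 0.071% (about 49) showed 50% or more at least once.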
D: 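Enzyme assay of histidyl-tRNA synthetase; the read-out is not stated. Target: Histidine-tRNA ligase, Trypanosoma cruzi CL Brener (UniProt Q4DA54). Tested at 30 µM. The record gives no direction; compounds that gave an IC50 in retests scored well above the rest, so higher reads as stronger inhibition. About 69,000 compounds were tested under these conditions; 0.045% (about 31) showed 50% or more at least once.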

The filed quantity is “Percent Effect” (%). The record does not define 0% and 100%; most values in the screen are far below 50% and negative numbers occur (in some assays of this library far below -100). This is an unselected part of the compounds tested. Two or more numbers in one place are separate tests of the same structure; such repeats can differ widely. A dash means the value is not listed here; it may have been measured.

Compound	A	B	C	D
CC(CC#N)N(C)Cc1ccccc1F (centres undefined)	-37.82%	5.556%	0.3928%	0.5405%
Cc1cc(C(=O)Nc2ccc(OCCN3CCN(C)CC3)cc2)[nH]n1	-38.35%	-4.713%	4.719%	11.6%
CC1CCN(C(=O)Cn2nc(Br)nc2Br)CC1	-10.29%	6.264%	-0.503%	7.216%
Cc1ccc(CN2CCN(Cc3ccncc3)[C@@H]3CS(=O)(=O)C[C@@H]32)cc1	-0.7413%	7.937%	16.85%	4.082%
Cc1cccc(NC(=O)[C@@H]2CCCN2CC(=O)N2CCCCCC2)n1	-26.1%	0.4464%	-0.2002%	1.245%
COc1ccc(CCNC(=O)C2CCC(Cn3cnnn3)CC2)cc1 (centres undefined)	-28.21%	-6.057%	2.624%	1.639%
Cc1ccc(CN2CCCC3(CCN(S(=O)(=O)N(C)C)C3)C2)o1 (centres undefined)	-27.01%	0.5181%	-2.347%	4.918%
Cc1cc(C)nc(CN2CCOC(c3ccc(Cl)cc3)C2)n1 (centres undefined)	37.15%	-1.229%	2.718%	14.12%
Cc1ccc(S(=O)(=O)N2CCC3(CC(C(=O)NC4CCC4)=NO3)C2)cc1 (centres undefined)	-3.801%	7.143%	6.169%	9.091%
Cc1nn(C)cc1C(=O)N1CCC(C(=O)c2nc3ccccc3s2)CC1	12.17%	0%	1.557%	1.13%
CC(C)c1sc(Cl)nc1C(=O)N1CCN(Cc2ccccc2)CC1	19.74%	-2.405%	6.255%	-6.211%
CC(=O)N1CC(=O)N(c2cnn(C)c2)CC12CCN(Cc1ccoc1)C2 (centres undefined)	-7.736%	1.449%	7.31%	0.5348%
CCc1ccc2nc(NCC(O)CO)cc(C)c2c1 (centres undefined)	-20.53%	12.81%	-0.06875%	1.734%
CCC(C#N)NC(=O)c1sccc1OC (centres undefined)	-17.29%	11.33%	1.775%	7.035%
CN(Cc1ccccc1F)Cc1cc2c(cc1Br)OCCO2	-2.444%	10.14%	3.128%	4.762%
O=C(CCc1ccccc1F)NS(=O)(=O)c1ccc2c(c1)OCCCO2	-10.4%	2.872%	4.283%	-6.391%
Cc1ccc(CN2CCCC3(CCCC(=O)N3C)C2)s1 (centres undefined)	-0.02527%	3.202%	1.334%	4.124%
CC(C)c1nc(CN(C)C(=O)c2ccc(CN3CCCCC3)cc2)cs1	-1.202%	1.082%	6.021%	8.8%
COc1ccccc1CC(=O)NCc1ccnc(NC2CC2)c1	-19.1%	5.242%	-2.923%	2.793%
Cn1cc(C(=O)CC2CCCN2C(=O)c2cccc3ncccc23)cn1 (centres undefined)	-8.92%	5.093%	-1.501%	0.8596%
CCSc1ncc(CN2CCN(c3ncc(C)c(N)n3)CC2)cn1	-15.06%	-1.471%	5.979%	7.143%
Cc1cnc(CNC(=O)CCCn2cnc3ccccc3c2=O)cn1	-7.479%	1.687%	-4.782%	8.911%
Cc1ccc(CNCC2CNc3cc(C)nn3C2)cn1 (centres undefined)	-28.75%	8.238%	-0.4602%	2.959%
Fc1ccc(-c2nc(CN3CCCCC3Cn3cncn3)co2)cc1 (centres undefined)	-24.22%	21.82% & 12.89%	0.6608%	7.493%
Cc1nc[nH]c1CNCc1cccnc1N(C)C1CCCCC1	-28.23%	1.141%	4.202%	2.155%
COCCc1noc(CN2CC(n3nc(C)cc3C)C2)n1	-5.826%	-14.48%	1.032%	5.413%
CCc1nc(CCNc2ncccc2S(N)(=O)=O)sc1C	-0.5128%	-2.086%	6.906%	9.877%
CC[C@H]1CN(C(=O)c2cccnc2)CC[C@H]1CC(=O)NC1CC1	-28.84%	7.449%	1.137%	11.88%
CC(C)c1nnc2n1CCN(CC(=O)N1CCc3sccc3C1)C2	-13.95%	2.155%	-1.042%	6.509%
Cc1cc(CN2CCCC2c2noc(C(C)C)n2)on1 (centres undefined)	-8.92%	-0.129%	-0.02021%	4.598%
CCOCCN1CCN(Cc2nnc(C3CC3)o2)CC1C (centres undefined)	-101.6%	0.9615%	-0.8619%	4.926%
c1ccc2ncc(CC3CNCCOC3)cc2c1 (centres undefined)	-7.32%	-2.577%	1.173%	4.651%
Cn1nnc2c1C(COCC1CC1)CN(C(=O)C1=CCCC1)C2 (centres undefined)	-11.05%	5.172%	7.454%	2.062%
c1cnc(N2CCO[C@H]3CN(CC4CCCC4)C[C@H]32)cn1	-15.99%	1.733%	6.536%	3.315%
CN(Cc1cnn(-c2ccccc2)n1)C1CCCN(c2cccnn2)C1 (centres undefined)	-13.63%	-11.53%	0.6705%	4.36%
CCCN1C[C@H]2CC[C@@H]1CN(Cc1cccc(-n3cccn3)c1)C2	-45.57%	-	-0.1242%	1.316%